No constants are given. Whether binding was seen depends on the method and setting. In cells and extracts the contact can be indirect. Some entries that bind do so weakly or less than the wild type. Where a sequence is shown, tags or fusion partners need not be part of it.

Chains of the proteins cited; added tags and fusions are not shown.
UniProt Q8VSC3: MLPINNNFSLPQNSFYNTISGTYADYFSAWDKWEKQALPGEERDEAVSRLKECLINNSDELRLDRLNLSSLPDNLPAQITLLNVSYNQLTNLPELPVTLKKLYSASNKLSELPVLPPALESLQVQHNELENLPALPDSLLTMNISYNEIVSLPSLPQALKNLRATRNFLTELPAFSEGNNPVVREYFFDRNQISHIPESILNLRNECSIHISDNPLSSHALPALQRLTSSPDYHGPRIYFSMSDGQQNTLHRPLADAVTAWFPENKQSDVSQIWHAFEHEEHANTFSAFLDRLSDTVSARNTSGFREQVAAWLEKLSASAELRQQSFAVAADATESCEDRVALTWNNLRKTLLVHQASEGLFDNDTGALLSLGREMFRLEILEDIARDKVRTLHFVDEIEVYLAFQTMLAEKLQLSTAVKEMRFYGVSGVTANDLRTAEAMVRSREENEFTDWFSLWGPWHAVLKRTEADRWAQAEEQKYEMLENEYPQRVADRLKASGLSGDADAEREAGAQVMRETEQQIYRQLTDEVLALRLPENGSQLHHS

B1: luciferase::GBP3 (protein, UniProt Q9H0R5 1-595)
chain: MAPEIHMTGPMCLIENTNGELVANPEALKILSAITQPVVVVAIVGLYRTGKSYLMNKLAGKNKGFSLGSTVKSHTKGIWMWCVPHPKKPEHTLVLLDTEGLGDVKKGDNQNDSWIFTLAVLLSSTLVYNSMGTINQQAMDQLYYVTELTHRIRSKSSPDENENEDSADFVSFFPDFVWTLRDFSLDLEADGQPLTPDEYLEYSLKLTQGTSQKDKNFNLPRLCIRKFFPKKKCFVFDLPIHRRKLAQLEKLQDEELDPEFVQQVADFCSYIFSNSKTKTLSGGIKVNGPRLESLVLTYINAISRGDLPCMENAVLALAQIENSAAVQKAIAHYDQQMGQKVQLPAETLQELLDLHRVSEREATEVYMKNSFKDVDHLFQKKLAAQLDKKRDDFCKQNQEASSDRCSALLQVIFSPLEEEVKAGIYSKPGGYCLFIQKLQDLEKKYYEEPRKGIQAEEILQTYLKSKESVTDAILQTDQILTEKEKEIEVECVKAESAQASAKMVEEMQIKYQQMMEEKEKSYQEHVKQLTEKMERERAQLLEEQEKTLTSKLQEQARVLKERCQGESTQLQNEIQKLQKTLKKKTKRYMSHKLKI
B2: luciferase::GBP4 (protein, UniProt Q96PP9 1-640)
chain: MGERTLHAAVPTPGYPESESIMMAPICLVENQEEQLTVNSKALEILDKISQPVVVVAIVGLYRTGKSYLMNRLAGKRNGFPLGSTVQSETKGIWMWCVPHLSKPNHTLVLLDTEGLGDVEKSNPKNDSWIFALAVLLSSSFVYNSVSTINHQALEQLHYVTELAELIRAKSCPRPDEAEDSSEFASFFPDFIWTVRDFTLELKLDGNPITEDEYLENALKLIPGKNPKIQNSNMPRECIRHFFRKRKCFVFDRPTNDKQYLNHMDEVPEENLERHFLMQSDNFCSYIFTHAKTKTLREGIIVTGKRLGTLVVTYVDAINSGAVPCLENAVTALAQLENPAAVQRAADHYSQQMAQQLRLPTDTLQELLDVHAACEREAIAVFMEHSFKDENHEFQKKLVDTIEKKKGDFVLQNEEASAKYCQAELKRLSEHLTESILRGIFSVPGGHNLYLEEKKQVEWDYKLVPRKGVKANEVLQNFLQSQVVVEESILQSDKALTAGEKAIAAERAMKEAAEKEQELLREKQKEQQQMMEAQERSFQEYMAQMEKKLEEERENLLREHERLLKHKLKVQEEMLKEEFQKKSEQLNKEINQLKEKIESTKNEQLRLLKILDMASNIMIVTLPGASKLLGVGTKYLGSRI
B3: luciferase::GBP2 (protein, UniProt P32456 1-591)
chain: MAPEINLPGPMSLIDNTKGQLVVNPEALKILSAITQPVVVVAIVGLYRTGKSYLMNKLAGKKNGFSLGSTVKSHTKGIWMWCVPHPKKPEHTLVLLDTEGLGDIEKGDNENDSWIFALAILLSSTFVYNSMGTINQQAMDQLHYVTELTDRIKANSSPGNNSVDDSADFVSFFPAFVWTLRDFTLELEVDGEPITADDYLELSLKLRKGTDKKSKSFNDPRLCIRKFFPKRKCFVFDWPAPKKYLAHLEQLKEEELNPDFIEQVAEFCSYILSHSNVKTLSGGIPVNGPRLESLVLTYVNAISSGDLPCMENAVLALAQIENSAAVEKAIAHYEQQMGQKVQLPTETLQELLDLHRDSEREAIEVFMKNSFKDVDQMFQRKLGAQLEARRDDFCKQNSKASSDCCMALLQDIFGPLEEDVKQGTFSKPGGYRLFTQKLQELKNKYYQVPRKGIQAKEVLKKYLESKEDVADALLQTDQSLSEKEKAIEVERIKAESAEAAKKMLEEIQKKNEEMMEQKEKSYQEHVKQLTEKMERDRAQLMAEQEKTLALKLQEQERLLKEGFENESKRLQKDIWDIQMRSKSLEPICNIL
B4: luciferase::GBP1 (protein, UniProt P32455 1-592)
chain: MASEIHMTGPMCLIENTNGRLMANPEALKILSAITQPMVVVAIVGLYRTGKSYLMNKLAGKKKGFSLGSTVQSHTKGIWMWCVPHPKKPGHILVLLDTEGLGDVEKGDNQNDSWIFALAVLLSSTFVYNSIGTINQQAMDQLYYVTELTHRIRSKSSPDENENEVEDSADFVSFFPDFVWTLRDFSLDLEADGQPLTPDEYLTYSLKLKKGTSQKDETFNLPRLCIRKFFPKKKCFVFDRPVHRRKLAQLEKLQDEELDPEFVQQVADFCSYIFSNSKTKTLSGGIQVNGPRLESLVLTYVNAISSGDLPCMENAVLALAQIENSAAVQKAIAHYEQQMGQKVQLPTETLQELLDLHRDSEREAIEVFIRSSFKDVDHLFQKELAAQLEKKRDDFCKQNQEASSDRCSALLQVIFSPLEEEVKAGIYSKPGGYRLFVQKLQDLKKKYYEEPRKGIQAEEILQTYLKSKESMTDAILQTDQTLTEKEKEIEVERVKAESAQASAKMLQEMQRKNEQMMEQKERSYQEHLKQLTEKMENDRVQLLKEQERTLALKLQEQEQLLKEGFQKESRIMKNEIQDLQTKMRRRKACTIS

For the assay, the target named is GST::ipaH9.8 (HIS::GST::ipaH9.8 from pETM30) (Shigella flexneri) (UniProt Q8VSC3). Kind of assay: pull-down; LUMIER binding assay: GST::ipaH9.8 immobilised on beads, incubated 2 h with luciferase-tagged GBP from 293ET cells in LUMIER lysis buffer (150 mM NaCl, 0.1% Triton X-100, 20 mM Tris-HCl pH 7.4, 5% glycerol, 5 mM EDTA, proteinase inhibitors); eluted with glutathione; luciferase activity over GST control; only the target purified.
As to B1, the binding entry is “no binding”.

Turning to B2, the binding result was “binds”.

In the case of B3, the binding entry is given as “binds”.

For B4, the binding entry was “binds”.
